In patent publication US20160369115A1, “POLARIZING PLATE COMPOSITION, POLARIZING PLATE PROTECTIVE FILM, POLARIZER, POLARIZING PLATE, LIQUID CRYSTAL DISPLAY DEVICE, AND COMPOUND USED IN THE LIQUID CRYSTAL DISPLAY DEVICE” (FUJIFILM Corporation, priority 2014, published 2016):

What was measured:
[1] = Durability evaluation of polarizing plate, additive in polarizing plate protective film (Example 1); settings: additive in protective film: Cellulose acylate, 25 μm, added amount 4.0 per 100 parts by mass of film resin; 410 nm
[2] = Evaluation of light-fast adhesiveness of polarizing plate protective film with hardcoat layer; settings: additive in protective film: Cellulose acylate, 25 μm, added amount 4.0 per 100 parts by mass of film resin; light 96 hours, 60° C., 50% RH
[3] = Bleed-out properties in polarizer (haze evaluation); settings: haze of polarizing plate; additive in polarizer, added amount 1.0 per 100 parts by mass of polyvinyl alcohol resin
[4] = Evaluation of durability of polarizing plate, additive in polarizer (Example 2); settings: added amount 1.0 per 100 parts by mass of polyvinyl alcohol resin, 410 nm
[5] = Bleed-out properties in adhesive layer (haze evaluation); settings: additive in adhesive layer, added amount 10.0 per 100 parts by mass of the polyvinyl alcohol resin, film thickness 5 μm
[6] = Evaluation of durability of polarizing plate, additive in adhesive layer (Example 3); settings: added amount 10.0 per 100 parts by mass of the polyvinyl alcohol resin, film thickness 5 μm

Nc1c(F)c(F)c(C(=O)O)c(F)c1F [Organic acid 2, reference compound]
Durability of polarizer: amount of change of orthogonal transmittance (%) 60° C., 95%, 500 hours [1]: B (The amount of change of the orthogonal transmittance before and after the elapse of time was equal to or greater than 0.6% and less than 0.8%.)
Durability of polarizer: amount of change of orthogonal transmittance (%) 60° C., 95%, 1,000 hours [1]: B (The amount of change of the orthogonal transmittance before and after the elapse of time was equal to or greater than 1.4% and less than 1.6%.)
Durability of polarizer: amount of change of orthogonal transmittance (%) 80° C., Dry 500 hours [1]: B (The amount of change of the orthogonal transmittance before and after the elapse of time was equal to or greater than 0.3% and less than 0.5%.)
Durability of polarizer: amount of change of orthogonal transmittance (%) 80° C., Dry, 1,000 hours [1]: B (The amount of change of the orthogonal transmittance before and after the elapse of time was equal to or greater than 0.8% and less than 1.0%.)
Light-fast adhesiveness [2]: B (The number of cells peeled off among 100 cells was 11 to 20.)
Bleed out [3]: B (The haze was equal to or greater than 0.3% and less than 0.7%.)
Durability of polarizer: amount of change of degree of polarization (%) 60° C., 95%, 500 hours [4]: A (The amount of change of the orthogonal transmittance before and after the elapse of time was equal to or greater than 0.05% and less than 2.0%.)
Durability of polarizer: amount of change of degree of polarization (%) 60° C., 95%, 1,000 hours [4]: B (The amount of change of the degree of polarization before and after the elapse of time was equal to or greater than 4.0% and less than 6.0%.)
Durability of polarizer: amount of change of degree of polarization (%) 80° C., Dry, 500 hours [4]: A (The amount of change of the degree of polarization before and after the elapse of time was equal to or greater than 0.05% and less than 1.0%.)
Durability of polarizer: amount of change of degree of polarization (%) 80° C., Dry, 1,000 hours [4]: B (The amount of change of the degree of polarization before and after the elapse of time was equal to or greater than 2.0% and less than 4.0%.)
Durability of polarizer: amount of change of orthogonal transmittance (%) 60° C., 95%, 500 hours [4]: A (The amount of change of the orthogonal transmittance before and after the elapse of time was equal to or greater than 0.1% and less than 0.4%.)
Durability of polarizer: amount of change of orthogonal transmittance (%) 60° C., 95%, 1,000 hours [4]: B (The amount of change of the orthogonal transmittance before and after the elapse of time was equal to or greater than 1.0% and less than 1.6%.)
Durability of polarizer: amount of change of orthogonal transmittance (%) 80° C., Dry 500 hours [4]: A (The amount of change of the orthogonal transmittance before and after the elapse of time was equal to or greater than 0.05% and less than 0.1%.)
Durability of polarizer: amount of change of orthogonal transmittance (%) 80° C., Dry, 1,000 hours [4]: B (The amount of change of the orthogonal transmittance before and after the elapse of time was equal to or greater than 0.3% and less than 0.4%.)
Bleed out [5]: A (The haze was less than 0.3%.)
Durability of polarizer: amount of change of degree of polarization (%) 60° C., 95%, 500 hours [6]: A (The amount of change of the degree of polarization before and after the elapse of time was equal to or greater than 0.05% and less than 2.0%.)
Durability of polarizer: amount of change of degree of polarization (%) 60° C., 95%, 1,000 hours [6]: B (The amount of change of the degree of polarization before and after the elapse of time was equal to or greater than 4.0% and less than 6.0%.)
Durability of polarizer: amount of change of degree of polarization (%) 80° C., Dry, 500 hours [6]: A (The amount of change of the degree of polarization before and alter the elapse of time was equal to or greater than 0.05% and less than 1.0%.)
Durability of polarizer: amount of change of degree of polarization (%) 80° C., Dry, 1,000 hours [6]: B (The amount of change of the degree of polarization before and after the elapse of time was equal to or greater than 2.0% and less than 4.0%.)
Durability of polarizer: amount of change of orthogonal transmittance (%) 60° C., 95%, 500 hours ([6]; 410 nm): A (The amount of change of the orthogonal transmittance before and after the elapse of time was equal to or greater than 0.1% and less than 0.4%.)
Durability of polarizer: amount of change of orthogonal transmittance (%) 60° C., 95%, 1,000 hours ([6]; 410 nm): B (The amount of change of the orthogonal transmittance before and after the elapse of time was equal to or greater than 1.0% and less than 1.6%.)
Durability of polarizer: amount of change of orthogonal transmittance (%) 80° C., Dry 500 hours ([6]; 410 nm): A (The amount of change of the orthogonal transmittance before and after the elapse of time was equal to or greater than 0.05% and less than 0.1%.)
Durability of polarizer: amount of change of orthogonal transmittance (%) 80° C., Dry, 1,000 hours ([6]; 410 nm): B (The amount of change of the orthogonal transmittance before and after the elapse of time was equal to or greater than 0.3% and less than 0.4%.)

Some compounds share one range, which may span the group rather than tell each member.
